# Assay results taken from PubChem BioAssay AID1347423 (Functional Genomics Laboratory (NCATS/FGL), 2020).
# Out of some 52,000 sequences screened, about 210 (0.4%) were called active.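 Rule for the calls: active = gene whose silencing raises cell survival under the drug, median off-target-corrected z-score across its silencing RNAs 2 or more; inactive = the rest.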 The list shows a part of the results.
# Experiment: Resistance to Poly (ADP-Ribose) Polymerase inhibitor: Gene Identification via Genome-wide siRNA Screen
# Details: mouse BRCA2 R2336H ES cells, olaparib, CellTiter-Glo viability; hits give high values
# Outline: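 Genome-wide siRNA screen (3 siRNAs/gene, 20 nM) in mouse ES cells carrying hypomorphic BRCA2 R2336H; olaparib 500 nM added 48 h post-transfection, CellTiter-Glo viability 72 h later. Normalized to plate-median negative control; MAD z-scores, gene median, seed-adjusted.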
row,Sequence,z-score
1,GCUUAUUGAAUCCCUCUUATT against S100a17,inactive: 0.177
2,GGAAACAGAGAAGAUCAUUTT against Kif1a,inactive: -1.11
3,GGUACGAUCACUCCAAAACTT against Clk1,inactive: -2.56
4,GGAAGUAAGGAAAUCAAAATT against Gspt2,inactive: 0.806
5,GGAUUUUGGAUGAAAACACTT against BC022145,inactive: -1.58
6,GGUUGAUAAAGGAGCCAUCTT against Mcts1,inactive: -1.19
7,GGAUAUGAACAAUAGCAUATT against Kcna1,inactive: -0.413
8,GGCUCCUGUGCAUAUCUAATT against Olfr116,inactive: 0.0543
9,GCAGUUAUUCAAAUUUGCCTT against Keg1,inactive: 0.116
10,GGUGUUCUUCACUGACUACTT against Lrp1,inactive: 0.11
11,CCGACAGCACUUGUCUUGATT against Fbxo4,inactive: -1.89
12,GGGCUUAAGCUUUGAGGGUTT against Fkhl18,inactive: -0.203
13,GGAACUGUAGAUUGUGUACTT against Pdcd4,inactive: 0.166
14,GCCAUGUUAAAUUCUCUACTT against Poln,inactive: 0.741
15,GGACUUCUAGAGAAGAAGCTT against AI838661,inactive: -0.124
16,GGUUGCUACAAGAUUACUATT against Rps27l,inactive: -1.88
17,GGCAUGAAGUGAUCAAUAUTT against 1700020F09Rik,inactive: -1.36
18,GGAAGCUCUACCAGGUUAATT against Capg,inactive: -1.62
19,GGCAUGACAUCAUUGCAUGTT against Mapre2,inactive: -0.74
20,GGGAGCCACUCUGAAGAUCTT against Pkm2,inactive: 0.368
21,CCUCUACAAUGUAACCAACTT against Kirl2,inactive: 0.935
22,GGAGCAUGUAGAGGUUUACTT against Txnrd2,inactive: -0.978
23,GGGACAGACCUUGCCUUUGTT against 2410004C24Rik,inactive: 0.693

# Looked up one by one from above:
row,Sequence,z-score
20,GGGAGCCACUCUGAAGAUCTT against Pkm2,inactive: 0.368
22,GGAGCAUGUAGAGGUUUACTT against Txnrd2,inactive: -0.978
23,GGGACAGACCUUGCCUUUGTT against 2410004C24Rik,inactive: 0.693
18,GGAAGCUCUACCAGGUUAATT against Capg,inactive: -1.62
4,GGAAGUAAGGAAAUCAAAATT against Gspt2,inactive: 0.806

# (list continues)

row,Sequence,z-score
1,GAACUCUCUCUUCAUCUGGTT against Clm3,inactive: 1.09
2,GGAGAGCCUGAGCAAGAAUTT against AW547186,inactive: -1.91
3,GGGUGAGAAGAAAAUCCGGTT against Zbtb7,inactive: 0.75
4,GCAAGUAUUUUACAGGUGCTT against Lman1,inactive: 0.734
5,GGAAGAUUUAGGUUCUACUTT against Def8,inactive: 0.875
6,GGAACGAGAAGAAAUUUAGTT against 3110049J23Rik,inactive: 0.00748
7,CGGACAGUAUCACAAUCGUTT against 2900055D03Rik,inactive: -0.898
8,GGGAAGACCAUUUUUAAAUTT against Zfp78,inactive: 0.79
9,GCUCUCGUAGACUGCUAUATT against Ppp1r14c,inactive: -0.76
10,GACAGUCUCAAAUUUAUCCTT against Mapbpip,inactive: -1.31
11,GCUAUACACUUACUAGAAUTT against Gpr110,inactive: -0.152
12,GCUCGAGGACUAUAUGAAUTT against Xrcc1,inactive: -1.25
13,GCAGAUGGGCAUCUAUGCUTT against Trpv1,inactive: 1.82
14,CCACUAUUCUGUCAAAGGGTT against Pmm2,inactive: 0.257
15,GGUGGUCACUAAGAAGUUCTT against 1700011K15Rik,inactive: 0.535
16,GGACAGUCGAAUUUCAGUCTT against Olfr417,inactive: 0.149
17,GCUGGUGUGUAACAUCAAUTT against Fut8,inactive: 1.72
18,GGAAAGAAUCCACUUGCAUTT against 5430438H03Rik,inactive: 1.7
19,GCAGCAGUUUUGUAGACAUTT against Fbxo25,inactive: 1.53
20,CCACUGAAGUUUUCAUUCUTT against Olfr1055,inactive: 0.663
21,GGAAAUGAGUCUCAACCAGTT against D13Wsu64e,inactive: -0.694
22,CCCUUCUCCACCUGAGAGUTT against Orm3,inactive: 0.573
23,GGUAUAGAGAGUUCGUGUGTT against Snx10,inactive: 1.63

row,Sequence,z-score
1,GGAAUAAAGGAACUGAAUCTT against Plek,inactive: 0.753
2,CCUGUAAAGUGUGAUAUUATT against Cach,inactive: -0.551
3,GCUCAACUUCUGAAUUAUATT against Enpep,inactive: 0.121
4,GGGACAGUUGACUUUUUAUTT against Cntn4,inactive: -0.00236
5,GGCUCUGGCUAAGUACUUGTT against Cenpb,inactive: 0.497
6,GGCAAAUUAAAGACAAAUCTT against 9530009G21Rik,inactive: 1.04
7,GGGAACUUAACCUAGGCGUTT against Ipf1,inactive: 1.49
8,AGUCUCACCAGCAACGCACTT against 4930451E10Rik,inactive: -2.33
9,UCGGGAAAUGAAAUGUUGCTT against Crh,inactive: 0.767
10,GCAGAUUUGAAGCAUAUUGTT against BC004022,inactive: -0.505
11,GGGAAGUUUGGUUCUUUGGTT against Msn,inactive: 0.371
12,GCAAAAGGAAACGAUCUCATT against Fbxo43,inactive: -0.96
13,GCCAUACGACUAUAGUAUUTT against 2610305D13Rik,inactive: -0.402
14,GGCUUUUCUGCCAUUUAUGTT against Sox18,inactive: -0.144
15,GGUGAAAAUCAAGCUGAAUTT against Smarca2,inactive: 0.264
16,CCAUUGCCAACAACUAGAUTT against Ela3b,active: 2.87
17,GGUAUGAAUACCACUGGGCTT against Mobk1b,inactive: -0.288
18,GGCUCACAAAGAGGAAAACTT against A730042J05Rik,inactive: -0.922
19,GGAAGAUUAUUUUCUUACCTT against 4933404O11Rik,inactive: 1.32
20,CCAUGAGGAUGAUUACCUATT against Cnga2,inactive: -0.306
21,UCCCAACUCCUAAAGAUCGTT against F730035P03Rik,inactive: -1.35
